Results are given in words; binding and its absence hold for the method and conditions named. In cells and extracts the contact can be indirect. Some entries that bind do so weakly or less than the wild type. For some assays here: Tags and fused reporters may be left off the sequences shown.
Tests used:
[1] = target: Flag-tagged cyclic GMP-AMP synthase (cGAS) (UniProt Q8N884); test: co-IP
[2] = target: Flag-tagged mitochondrial antiviral signaling protein (MAVS) (UniProt Q7Z434); test: co-IP
[3] = target: Flag-tagged stimulator of interferon genes (STING) (UniProt Q86WV6); test: co-IP
[4] = target: MAVS, in vitro transcribed and translated (UniProt Q7Z434); test: pull-down
[5] = target: T1, endogenous MAVS of mouse lung (mouse (endogenous in lung tissue)) (UniProt Q8VCF0); test: co-IP
T1 sequence: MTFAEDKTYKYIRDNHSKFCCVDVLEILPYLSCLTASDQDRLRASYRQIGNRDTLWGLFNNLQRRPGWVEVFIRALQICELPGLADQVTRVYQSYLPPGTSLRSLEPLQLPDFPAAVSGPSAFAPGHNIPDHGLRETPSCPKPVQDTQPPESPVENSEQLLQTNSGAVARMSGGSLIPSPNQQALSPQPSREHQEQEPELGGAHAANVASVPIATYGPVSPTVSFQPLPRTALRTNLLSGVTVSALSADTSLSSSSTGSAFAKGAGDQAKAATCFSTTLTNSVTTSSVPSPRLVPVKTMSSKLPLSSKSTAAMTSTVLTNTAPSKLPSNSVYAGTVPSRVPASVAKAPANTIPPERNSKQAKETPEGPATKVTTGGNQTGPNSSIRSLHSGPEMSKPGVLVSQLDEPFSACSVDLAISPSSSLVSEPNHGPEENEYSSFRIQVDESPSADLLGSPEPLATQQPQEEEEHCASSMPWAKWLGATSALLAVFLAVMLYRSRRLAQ

Protein sequences, listed by entry. Tags and fused reporters are not part of them.
UniProt Q8N884: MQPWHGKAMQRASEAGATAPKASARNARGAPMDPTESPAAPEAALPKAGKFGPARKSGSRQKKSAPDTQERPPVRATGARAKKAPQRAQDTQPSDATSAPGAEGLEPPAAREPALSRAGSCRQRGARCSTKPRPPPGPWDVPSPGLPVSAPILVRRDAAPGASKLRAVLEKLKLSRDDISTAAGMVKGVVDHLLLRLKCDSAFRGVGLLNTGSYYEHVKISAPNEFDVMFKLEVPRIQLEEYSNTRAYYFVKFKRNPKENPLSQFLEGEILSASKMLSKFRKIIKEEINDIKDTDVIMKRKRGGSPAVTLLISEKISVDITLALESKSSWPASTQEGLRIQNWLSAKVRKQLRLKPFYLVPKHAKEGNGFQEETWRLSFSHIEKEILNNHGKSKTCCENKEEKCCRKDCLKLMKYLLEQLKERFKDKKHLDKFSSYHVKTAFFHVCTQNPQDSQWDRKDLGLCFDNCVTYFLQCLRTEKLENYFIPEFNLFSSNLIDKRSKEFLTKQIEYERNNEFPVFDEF
UniProt Q7Z434: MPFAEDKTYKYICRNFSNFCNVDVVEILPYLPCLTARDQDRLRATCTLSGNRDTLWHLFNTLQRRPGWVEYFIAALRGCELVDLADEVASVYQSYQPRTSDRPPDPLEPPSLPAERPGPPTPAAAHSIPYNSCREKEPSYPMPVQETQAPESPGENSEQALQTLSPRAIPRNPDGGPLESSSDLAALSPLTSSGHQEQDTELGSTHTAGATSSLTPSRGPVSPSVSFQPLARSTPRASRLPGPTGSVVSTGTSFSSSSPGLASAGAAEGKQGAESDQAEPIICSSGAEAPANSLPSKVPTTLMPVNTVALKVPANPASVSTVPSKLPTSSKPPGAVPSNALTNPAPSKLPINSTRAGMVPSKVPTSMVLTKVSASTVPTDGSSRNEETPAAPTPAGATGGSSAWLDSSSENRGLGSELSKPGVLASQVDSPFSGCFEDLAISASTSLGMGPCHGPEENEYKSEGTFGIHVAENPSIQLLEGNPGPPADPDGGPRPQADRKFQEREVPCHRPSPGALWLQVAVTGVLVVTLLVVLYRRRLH
UniProt Q86WV6: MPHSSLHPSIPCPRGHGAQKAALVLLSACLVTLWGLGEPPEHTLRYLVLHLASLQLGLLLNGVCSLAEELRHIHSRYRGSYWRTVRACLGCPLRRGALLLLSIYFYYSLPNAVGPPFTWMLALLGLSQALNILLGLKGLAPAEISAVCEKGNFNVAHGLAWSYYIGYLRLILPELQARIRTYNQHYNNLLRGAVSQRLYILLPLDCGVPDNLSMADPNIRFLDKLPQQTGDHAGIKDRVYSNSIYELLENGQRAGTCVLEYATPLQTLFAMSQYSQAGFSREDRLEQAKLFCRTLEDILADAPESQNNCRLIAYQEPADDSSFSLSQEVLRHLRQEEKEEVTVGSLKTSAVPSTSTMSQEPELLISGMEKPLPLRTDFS

B1: HA-tagged Ankyrin repeat and SOCS box-containing protein 3 (ASB3) (protein, UniProt Q9Y575 1-518)
chain: MDFTEAYADTCSTVGLAAREGNVKVLRKLLKKGRSVDVADNRGWMPIHEAAYHNSVECLQMLINADSSENYIKMKTFEGFCALHLAASQGHWKIVQILLEAGADPNATTLEETTPLFLAVENGQIDVLRLLLQHGANVNGSHSMCGWNSLHQASFQENAEIIKLLLRKGANKECQDDFGITPLFVAAQYGKLESLSILISSGANVNCQALDKATPLFIAAQEGHTKCVELLLSSGADPDLYCNEDSWQLPIHAAAQMGHTKILDLLIPLTNRACDTGLNKVSPVYSAVFGGHEDCLEILLRNGYSPDAQACLVFGFSSPVCMAFQKDCEFFGIVNILLKYGAQINELHLAYCLKYEKFSIFRYFLRKGCSLGPWNHIYEFVNHAIKAQAKYKEWLPHLLVAGFDPLILLCNSWIDSVSIDTLIFTLEFTNWKTLAPAVERMLSARASNAWILQQHIATVPSLTHLCRLEIRSSLKSERLRSDSYISQLPLPRSLHNYLLYEDVLRMYEVPELAAIQDG
For B1, the binding [1] was “no binding”, the binding [2] was “binds” and the binding [3] was “no binding”.

B2: ASB3, in vitro transcribed and translated (protein, UniProt Q9Y575 1-518)
chain: B1 chain
For B2, the binding [4] was “binds”.

B3: endogenous ASB3 of mouse lung (protein, UniProt Q9WV72 1-525)
chain: MDFTEAYSDTCSTVGLAAREGNVKILRKLLKKGRSVDVADNRGWMPIHEAAYHNAVECLQMLIHTDSSENYIKAKTFEGFCALHLAVSQGHWKITQILLEAGADPNETTLEETTPLFLAVESGRIDVLKLLLQHGANVNGSHSMSGWNSLHQASFQGNAETIRLLLKQGADRECQDDFGITPLFVAAQYGKLESMSILISSGANVNCQALDKATPLFIAAQEGHTKCVELLLSSGADPDLYCNEDNWQLPIHAAAQMGHTETLDLLIPRTNRACDTGPDKVSPVYSAVFGGREECLEMLLQNGYSPDAQMCLVFGFSSPLCMAFQKDCDFSGIVNILLKYGAQLNELHLAYCLKYEKFSMFCSFLKKGSLMVPWNHTSEFISYAVKAQTKYKAWLPHLLLAGFDPLILLCSSSWVDSASDDILIFTLEFSNWKRLPSAVEKMLSVRANSSWALQQHLASVPSLTHLCRLEIRASLKAEHLHSDIFIHQLPLPRSLQNYLLYEEVLRMNEILEPAANQDGETSKAT
In the case of B3, the binding [5] is reported as “binds”.

From paper doi:10.1101/2023.12.10.570965
